Assay results reported in PMC4202136.
The exact form of at least one protein or probe is not confirmed. At least one result comes from cells or an extract, where the contact may be indirect.

Sequences of proteins named here, by UniProt entry; tags and fusion partners are left off. A change or cut given only in a name is not applied to a line headed by its entry.
UniProt P16220: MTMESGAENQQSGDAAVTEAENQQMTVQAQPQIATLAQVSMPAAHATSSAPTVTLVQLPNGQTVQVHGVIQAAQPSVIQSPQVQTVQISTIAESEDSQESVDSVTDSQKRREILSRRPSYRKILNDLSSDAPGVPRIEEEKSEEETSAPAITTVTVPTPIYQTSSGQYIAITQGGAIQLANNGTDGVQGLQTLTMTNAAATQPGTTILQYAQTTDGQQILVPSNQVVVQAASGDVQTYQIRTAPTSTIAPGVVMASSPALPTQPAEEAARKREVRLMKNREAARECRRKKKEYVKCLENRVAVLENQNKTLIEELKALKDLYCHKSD

Target: CREB (UniProt P16220)
Assay: EMSA, supershift, cold self-competition (50-fold)
Conditions: A549 nuclear extract, binding markedly increased in shHMGB1 versus shControl cells; 10 mM Tris pH 8.0, 150 mM KCl, 2 mM EDTA, 10 mM MgCl2, 10 mM DTT, 0.1% BSA, 20% glycerol, 1 ug poly(dI-dC), 4 ug nuclear protein, room temperature 50 min; protein in an extract; label: 3' biotin

“ACATGAATTTACGCAACAAAAATA (double strand) [CREB probe (nwasp promoter)]”: binds.
